Consider 1 molecule from publication PMC6802641.

In this experiment the target is T1, Forkhead box P3 (Foxp3) (UniProt Q99JB6).
T1 sequence: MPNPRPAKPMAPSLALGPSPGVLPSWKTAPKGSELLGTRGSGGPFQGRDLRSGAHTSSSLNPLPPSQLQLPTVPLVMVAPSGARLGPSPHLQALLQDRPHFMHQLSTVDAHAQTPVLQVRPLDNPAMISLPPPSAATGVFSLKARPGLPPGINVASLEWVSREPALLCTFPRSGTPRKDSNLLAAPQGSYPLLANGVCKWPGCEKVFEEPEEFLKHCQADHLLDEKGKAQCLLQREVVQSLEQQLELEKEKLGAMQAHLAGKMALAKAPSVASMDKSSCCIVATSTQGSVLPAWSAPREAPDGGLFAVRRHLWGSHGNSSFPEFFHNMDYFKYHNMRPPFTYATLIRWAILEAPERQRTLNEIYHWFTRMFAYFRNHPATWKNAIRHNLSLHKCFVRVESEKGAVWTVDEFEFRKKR
The experiment can be described thus: co-IP; HEK293T cells transfected with pCMV-Nfil3 and pCMV-Foxp3; lysates by sonication, precleared with protein A/G; anti-NFIL3 or anti-Foxp3 antibody (or control IgG) overnight at 4 °C; protein A/G 2 h; washed with IP150 buffer; western blot with anti-Foxp3 or anti-NFIL3. A general note: A western blot detects proteins with antibodies after separation by electrophoresis.

Results are given in words; binding and its absence hold for the method and conditions named. In cells and extracts the contact can be indirect. Some binding calls cover weakened binding; strength is not graded here.

B1: Nuclear factor interleukin 3 (NFIL3) (protein, UniProt O08750 1-462)
chain: MQLRKMQTIKKEPAPLDPTSSSDKMLLLNSALAEVAEDLASGEDLLLNEGSMGKNKSSACRRKREFIPDEKKDAMYWEKRRKNNEAAKRSREKRRLNDLVLENKLIALGEENATLKAELLSLKLKFGLISSTAYAQEIQKLSNSTAVYFQDYQTSKAAVSSFVDEHEPAMVAGSCISVIKHSPQSSLSDVSEVSSVEHTQESPAQGGCRSPENKFPVIKQEPVELESFAREAREERGTYSTSIYQSYMGSSFSTYSHSPPLLQVHGSTSNSPRTSEADEGVVGKSSDGEDEQQVPKGPIHSPVELQRVHATVVKVPEVNPSALPHKLRIKAKAMQVKVEALDSEFEGMQKLSSPADAIAKRHFDLEKHGTSGMAHSSLPPFSVQVTNIQDWSLKSEHWHHKELSSKTQSSFKTGVVEVKDGGYKVSEAENLYLKQGIANLSAEVVSLKRFIATQPISASDSR
Consider B1, for which the binding result was “binds”.
